From patent US9422286B2, “Metal-binding bifunctional compounds as diagnostic agents for Alzheimer's disease” (Washington University, priority 2014, dated 2016)
Some of these results come from one statement about several compounds together.

The chains behind the UniProt entries cited, without tags or fusion partners. Residues count along the entry.
UniProt P05067, 672-713 limits assumed: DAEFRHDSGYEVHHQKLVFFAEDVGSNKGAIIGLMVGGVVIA

Experiments:
Aβ42 peptide = molecular target: T1, Aβ42 peptide (Homo sapiens, UniProt P05067); experiment: Native gel electrophoresis / Western blotting of Aβ species; format: biochemical
T1 construct: The monomeric Aβ42 peptide was incubated with compounds L3-L7; purchased Keck Biotechnology Resource Laboratory, Yale University

[1] = tested on: amyloid plaques in brain sections from Tg2576 APP transgenic mice; experiment: Epifluorescence microscopy of brain sections; format: binding; conditions: overlay of the two colors
[2] = without metal ions, 24 h, 37° C.

| SMILES | Formation of neurotoxic soluble Aβ species (Aβ42 peptide) | Formation of higher order oligomers (Aβ42 peptide; in the presence of metal ions) | Formation of higher order oligomers (Aβ42 peptide; [2]) | Number of Aβ species bound compared to Congo Red [1] |
| --- | --- | --- | --- | --- |
| COc1cc(-c2nc3ccccc3s2)cc(CN2Cc3cccc(n3)CN(C)Cc3cccc(n3)C2)c1O [L5] | do not lead to enhanced formation of neurotoxic soluble Aβ species | completely inhibited | reduce the formation of higher order oligomers | bind to a larger number of Aβ species compared to Congo Red |
| COc1cc(-c2nc3ccccc3s2)cc(CN2Cc3cccc(n3)CN(CC(=O)O)Cc3cccc(n3)C2)c1O [L6] | do not lead to enhanced formation of neurotoxic soluble Aβ species | completely inhibited | reduce the formation of higher order oligomers | bind to a larger number of Aβ species compared to Congo Red |
| COc1cc(-c2nc3ccccc3s2)cc(CN2Cc3cccc(n3)CN(Cc3cc(-c4nc5ccccc5s4)cc(OC)c3O)Cc3cccc(n3)C2)c1O [L7] | do not lead to enhanced formation of neurotoxic soluble Aβ species | completely inhibited | reduce the formation of higher order oligomers | bind to a larger number of Aβ species compared to Congo Red |
| COc1cc(-c2nc3ccccc3s2)cc(CN2CCN(C)CCN(C)CC2)c1O [L3] | do not lead to enhanced formation of neurotoxic soluble Aβ species | completely inhibited | reduce the formation of higher order oligomers | bind to a larger number of Aβ species compared to Congo Red |
| COc1cc(-c2nc3ccccc3s2)cc(CN2Cc3cccc(n3)CNCc3cccc(n3)C2)c1O [L4] | do not lead to enhanced formation of neurotoxic soluble Aβ species | completely inhibited | reduce the formation of higher order oligomers | bind to a larger number of Aβ species compared to Congo Red |
